4 sequences from paper PMC6325914 can be followed below.

Amino acid sequences for entries named in this document (tags omitted). A change or cut given only in a name is not applied to a line headed by its entry.
UniProt P17106: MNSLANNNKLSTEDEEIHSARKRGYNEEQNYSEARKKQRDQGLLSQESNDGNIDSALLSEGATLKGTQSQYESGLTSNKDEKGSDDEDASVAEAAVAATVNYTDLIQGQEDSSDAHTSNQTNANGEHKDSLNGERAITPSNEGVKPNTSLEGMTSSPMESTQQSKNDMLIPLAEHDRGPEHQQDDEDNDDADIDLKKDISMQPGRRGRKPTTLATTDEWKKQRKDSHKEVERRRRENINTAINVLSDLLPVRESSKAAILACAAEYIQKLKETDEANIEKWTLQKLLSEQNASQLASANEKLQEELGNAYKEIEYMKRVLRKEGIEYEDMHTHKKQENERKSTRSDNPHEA

Construct, isoform or probe ends are uncertain for at least one entry. Negatives hold for the conditions tested. A weaker result is weaker than the reference pair of the same experiment.

For this series, the target named is Cbf1 (Saccharomyces cerevisiae) (UniProt P17106). The series is described as follows: EMSA. The following applies: 0, 3, 6 ng Cbf1; 10 mM Tris pH 7.4, 1 mM EDTA, 50 mM KCl, room temperature 20 min, 20 ul, 2% agarose gel; recombinant protein; protein details: His; probe letters rebuilt from the primers and the genome. A general note: A gel shift assay detects complexes by their altered migration in electrophoresis.
On to “GGCCTCGAGGGCAAGCTTGACCTTTACTTTCCTCTCTAAAAGCCGTGTCGCAGTAACTGGTGACGCTAAAGTTCTCCGGCGTTTTTTTATGTATGAGCTGGGCATCAAGAGCTTTTGAGATTTTCCAAGTAGTAACTCATCTTTCTGAGTGTGCTATCAAATACATACTAAGGAGAATAAACTCTTGTTATTACGTATTCTTCATCCTTATGGGTAGAGAGCGCACTGTTTTAGTACATTTTCTAGACGTCGAAACGTAGAGCAATTGTCGATAAAACAAAAAAAAAGTAAGAAGATATATGAATAGGAGCTGTCGCTAGAACTAGTAAGTATATGATGGAGATATAATAAGTGAATTATTCGATATTTAATGAACGTTCTCATTTATTTGGAAGAAATGTTTATCACCAGATGGAGAACCAATGAGCGGCGAGTAACTACGCGAGGAACCCGGACCGCAATAACGATTAAAGAAGGCCCGGAAGGGAGATGCTTAAATGATTATCACTCAGTTAAAAAAGACAAATAAGAAACTATTGAGACTGAACCGTTTTGGTTAATTTCAGGTGGAAACAATTGAAGACGAGCAGTAAACATTATTTTATTTAGTAGTCATGTTGTCAAGAATTGTATCAAAGCTTGCC (double strand) [ATP3* promoter]”, for which the binding result is reported as “binds more weakly”.

Regarding “GGCCTCGAGCATTTTCTGTCGCTCTTATGATCCGTTGGATTAACGGTCTGAATAGTACCTTACAGTTGCTAACACCTTCCTATACTCAAATCCAGTACTAGCCACTGTAAAATCAGTATTCCAATAGGAAGAAAAAGGGGATCATAACCCGGCTATCGTATCACATGATAGTCACGTGCAGTGATTATCACGTGATCCGAACTGTTGTGAAAAAACGCGACGCGAAAAAAAAAATGCTGGGCTTCAACAGGAAAAAGACCAGGAATGAAAAATAGTTGGAAAGGAAACAACTGTCTTTTCCGGTCATTCCAACAAAGTTGCTAGATCCGCGGAACCATTTTCGTCATTTTTTTTTTTTCACTCTTTTTTCTCATATCGGTGGGCATTGTACCTGATCATGCTAGACAAATAACGTGGGAGGAGGGAGAAAGTATTGGAATCTAGACAAAGATTTTTAAGTTATTTTTCTATTGTTTCCCTCCTTGGCTTGTTGCATCCCGTTTTGTTTTATTTACTTGCTTTTTTTTTTTCTTATTTATTTATTTATTTATTTATTGTTATTTGGCTATTGTATTCCGTGAACCCGTTTTTCTGCTACATCGGCTTTATAATCCGGACCTGATTTAAGTTAAAACTACAGTTTCTTGTTCGTTACCGTTTTTCTGTTCCATACAGATATTTTTGTCGGTTGATCGCTATTGTTTTTATTATTCATACCTCCGGTAAACATTTAGATAGACACAGTATCAATAAACAAGAGCTATGTGGACAAAGCTTGCC (double strand) [LAC1 promoter]”, the binding result is “binds”.

As to “GGCCTCGAGGGCAAGCTTGACCTTTACTTTCCTCTCTAAAAGCCGTGTCGCAGTAACTGGTGACGCTAAAGTTCTCCGGCGTTTTTTTATGTATGAGCTGGGCATCAAGAGCTTTTGAGATTTTCCAAGTAGTAACTCATCTTTCTGAGTGTGCTATCAAATACATACTAAGGAGAATAAACTCTTGTTATTACGTATTCTTCATCCTTATGGGTAGAGAGCGCACTGTTTTAGTACATTTTCTAGACGTCGAAACGTAGAGCAATTGTCGATAAAACAAAAAAAAAGTAAGAAGATATATGAATAGGAGCTGTCGCTAGAACTAGTAAGTATATGATGGAGATATAATAAGTGAATTATTCGATATTTAATGAACGTTCTCATTTATTTGGAAGAAATGTTTATCACGTGATGGAGAACCAATGAGCGGCGAGTAACTACGCGAGGAACCCGGACCGCAATAACGATTAAAGAAGGCCCGGAAGGGAGATGCTTAAATGATTATCACTCAGTTAAAAAAGACAAATAAGAAACTATTGAGACTGAACCGTTTTGGTTAATTTCAGGTGGAAACAATTGAAGACGAGCAGTAAACATTATTTTATTTAGTAGTCATGTTGTCAAGAATTGTATCAAAGCTTGCC (double strand) [ATP3 promoter]”, the binding result is “binds”.

Take “GGCCTCGAGCCTCTTGTCCATTATCTTCGGGATCTTCCTTCACCAAATCGCAAACATCTAAAATGTATTGCCAGTTATCACTTCTCAACTTGGGATCTGTTGCCTTCAACAGTGCATTCCTTATTTTAATCGCAGATGATGACATTTTTGTCAACGGTTTCCTTAGATAGATTTACGCATTGCCTCTGGCATGGCCCCTATATTTAACAGTTAGAATCCATTGCGTTTCATTTATGTAATTCGAATTTCTTAACTAATCACTAATAACGGTAAATGAGGTTAACCATTAGAATAATGTATATAATTACGTACAAAGGCTACCGAAGTTCTGCGGCAGTAATGTAGGGTTTAGCTTTTGAATCAATCTTAGAGCCTGCTATCTTCCTGCACTTGCTGATTCCATAAATATAAACACCTTTCGGCTAGACCGACAAAGGTCGTAGTCGTTTTTCCTTTAGGGTATTATGACCAGGGACACCCCAGTCCGTCAAGACTAATATCGATAGTATATTACAGGTAAATAGAGATCCCTTTTATAGAGAATTTAACGCTTTAAACTTACCTAATGCGTCATCTTCCATTTGAAATCCTTCTTGACCGAGGGCAGCCCAGGGGTAGTGAAAAACGATGAAAAAATTCCATTTTTTTAGCGGGAAAAGCAAATTGCAGCATCAACATTTTACGCGCTATCACTTGACAAACAAGGCAAGGAAAACTGCAGCCCTGTACTAAGAAGGTCAAGATATTTGCCAAACGATTTCGTAAGGTTGTCTCAATTGATCTGACTGCTTGTCTATCTAAAGTGGCAAGGTATATTAGACAGTGTTGAGAGTGAACTCCAAGATACAGAGAAACTGAAGAAATAACGACAACATGACATCAAAGCTTGCC (double strand) [LAG1 promoter]”: the binding result is reported as “no binding”.
